Data on 1 molecule can be found in PMC4230938, “A High-Yield Co-Expression System for the Purification of an Intact Drs2p-Cdc50p Lipid Flippase Complex, Critically Dependent on and Stabilized by Phosphatidylinositol-4-Phosphate” (PLoS ONE, 2014).

This assay concerns the target T1, Drs2p, tag-free after TEV cleavage (S. cerevisiae, UniProt P39524 1-1355).
T1 construct: Drs2p, yeast P4-ATPase; theoretical mass of the recombinant protein 154,050 Da; also called purified Drs2p; source: S. cerevisiae W303.1b/GAL4, co-expressed with Cdc50p, purified (streptavidin-Sepharose, TEV elution, Ni2+-TED; SEC); not shown: Bad (Biotin Acceptor Domain), N-terminal, cleaved
T1 sequence (looked up): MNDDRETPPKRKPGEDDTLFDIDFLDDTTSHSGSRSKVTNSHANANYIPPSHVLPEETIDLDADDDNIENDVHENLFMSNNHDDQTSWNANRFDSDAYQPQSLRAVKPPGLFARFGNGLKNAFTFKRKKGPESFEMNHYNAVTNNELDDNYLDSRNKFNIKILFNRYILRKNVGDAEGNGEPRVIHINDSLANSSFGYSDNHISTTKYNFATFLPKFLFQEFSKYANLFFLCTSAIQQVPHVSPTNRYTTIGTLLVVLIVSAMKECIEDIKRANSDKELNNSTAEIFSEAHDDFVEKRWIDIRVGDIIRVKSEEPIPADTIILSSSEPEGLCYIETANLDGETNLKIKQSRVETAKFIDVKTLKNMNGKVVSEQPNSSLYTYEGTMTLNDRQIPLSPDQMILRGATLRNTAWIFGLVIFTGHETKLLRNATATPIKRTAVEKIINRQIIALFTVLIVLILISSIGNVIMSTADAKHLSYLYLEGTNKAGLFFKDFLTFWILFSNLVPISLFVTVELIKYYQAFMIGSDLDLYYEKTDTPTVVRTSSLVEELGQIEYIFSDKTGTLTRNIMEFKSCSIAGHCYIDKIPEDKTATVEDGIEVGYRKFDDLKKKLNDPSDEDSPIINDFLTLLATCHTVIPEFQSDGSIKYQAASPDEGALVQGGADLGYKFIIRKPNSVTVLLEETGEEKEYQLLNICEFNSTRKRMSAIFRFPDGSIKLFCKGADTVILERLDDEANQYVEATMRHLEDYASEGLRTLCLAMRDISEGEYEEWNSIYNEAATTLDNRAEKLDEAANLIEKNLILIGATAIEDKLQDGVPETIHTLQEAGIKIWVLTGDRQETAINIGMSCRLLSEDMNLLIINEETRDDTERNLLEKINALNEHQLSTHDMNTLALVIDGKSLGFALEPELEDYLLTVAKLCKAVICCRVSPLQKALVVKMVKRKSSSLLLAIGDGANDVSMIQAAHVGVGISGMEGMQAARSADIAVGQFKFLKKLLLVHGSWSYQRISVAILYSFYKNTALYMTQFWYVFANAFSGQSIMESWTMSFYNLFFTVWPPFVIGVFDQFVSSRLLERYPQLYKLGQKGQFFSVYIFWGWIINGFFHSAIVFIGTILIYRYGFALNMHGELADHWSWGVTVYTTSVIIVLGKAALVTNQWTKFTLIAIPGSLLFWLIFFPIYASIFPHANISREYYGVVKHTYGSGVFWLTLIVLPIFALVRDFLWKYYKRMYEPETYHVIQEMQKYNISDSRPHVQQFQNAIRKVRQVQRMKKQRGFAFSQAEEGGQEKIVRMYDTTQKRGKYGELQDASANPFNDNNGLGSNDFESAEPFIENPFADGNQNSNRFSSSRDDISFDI
Description: SEC; streptavidin-purified, Ni2+-TED-treated, concentrated complex on a TSK-3000SW column, 1 mL/min, SSR buffer without glycerol with 0.5 mg/mL DDM and 0.025 mg/mL POPS; fractions on SDS-PAGE; both purified. On the technique in general: In gel filtration, larger molecules generally elute earlier.

These are yes or no findings as the source states them, for the method shown. Some results given as binding are weak or reduced against the parent protein; the word gives no strength. Tags and fused reporters may be left off the sequences shown.

B1: Cdc50p, tag-free after TEV cleavage (natural protein, S. cerevisiae, UniProt P25656 1-391, looked up)
chain: MVSLFKRGKAPPLTKEGPTSKKPPNTAFRQQRLKAWQPILSPQSVLPLLIFVACIFTPIGIGLIVSATKVQDLTIDYSHCDTKASTTAFEDIPKKYIKYHFKSKVENKPQWRLTENENGEQSCELQFEIPNDIKKSIFIYYKITNFYQNHRRYVQSFDTKQILGEPIKKDDLDTSCSPIRSREDKIIYPCGLIANSMFNDTFSQVLSGIDDTEDYNLTNKHISWSIDRHRFKTTKYNASDIVPPPNWMKKYPDGYTDENLPDIHTWEEFQVWMRTAAFPKFYKLTLKNESASLPKGKYQMNIELNYPISLFGGTKSFVLTTNGAIGGRNMSLGVLYLIVAGLCALFGIIFLVKLIFQPRAMGDHTYLNFDDEENEDYEDVHAENTTLREIL
modifications: glycosylated
notes: Cdc50p, accessory subunit of Drs2p; recombinant non-glycosylated mass 45,136 Da including the linker glycines; also called glycosylated Cdc50p; source: S. cerevisiae W303.1b/GAL4, co-expressed with Drs2p, purified with it (streptavidin-Sepharose, TEV elution, Ni2+-TED; SEC); not shown: His10, N-terminal, cleaved
On to B1, for which the binding entry is recorded as “binds”.
